# Source: PubChem BioAssay AID540276 (National Center for Advancing Translational Sciences (NCATS), 2011)
# About 5,400 (1.8%) of roughly 300,000 compounds were called active. The inconclusive results got no clear call from the source; some entries with a clear call stand among them for comparison. Calls come from the whole dose curve; tested in HEK293 cells. Potencies beside an inconclusive call are fits to weak or partial responses and may not hold up.
# Assay: qHTS for inhibitors of binding or entry into cells for Marburg Virus
# Details: Marburg virus pseudotyped entry inhibition, cell reporter; series mostly up to 37.8 µM
# Potency is the fitted concentration of half-maximal effect.
row,SMILES,Potency
1,CCOC(=O)CC(=O)CSc1nnc2c(n1)[nH]c1ccccc12,"inconclusive: 23.1 µM [activator, partial curve, poor fit]"
2,CCOc1cc(C(=O)NCc2ccc(-c3nc4ccccc4o3)cc2)cc(OCC)c1OCC,"inconclusive: 18.3 µM [inhibitor, partial curve, poor fit]"
3,COc1ccc(OC)c(Nc2ccc(C(=O)O)cc2[N+](=O)[O-])c1,"inconclusive: 35.5 µM [inhibitor, single point]"
4,c1ccc(Cn2c(-c3ccco3)nc3nc4ccccc4nc32)cc1,"inconclusive: 6.31 µM [activator, single point]"
5,Cc1ccc(NC(=O)c2ccc3[nH]c(C)cc(=O)c3c2)c(C)c1,"inconclusive: 1.41 µM [activator, partial curve, poor fit]"
6,O=C(Nc1cccc(O)c1)c1cccc(S(=O)(=O)N2CCCCCC2)c1,"inconclusive: 35.5 µM [inhibitor, single point]"
7,CCOC(=O)c1cnc(-n2nc(C)cc2C)nc1Nc1ccc2c(c1)OCO2,inactive
8,Cc1ccc(Nc2cc(C(=O)NCc3cccs3)c3ccccc3n2)c(C)c1,inactive
9,CC(=O)Nc1cccc(Oc2ncnc3scc(-c4ccc(C(C)C)cc4)c23)c1,active: 2.82 µM
10,COc1ccc(/C=C/C(=O)c2ccc(Cl)cc2)c(OC)c1,"inconclusive: 2.82 µM [activator, single point]"
11,O=c1oc(Nc2cccc(F)c2)nc2ccccc12,inactive
12,O=C(NCCc1cccc(Cl)c1)c1ccc(Cl)c([N+](=O)[O-])c1,"inconclusive: 1.41 µM [inhibitor, full curve, poor fit]"
13,Cc1ccc(S(=O)(=O)NC(CC(N)=O)C(=O)O)cc1 (stereo not drawn),"inconclusive: 5.62 µM [activator, full curve, poor fit]"
14,COc1ccc(-n2ncc3c(NCC(C)C)ncnc32)cc1,"inconclusive: 6.31 µM [inhibitor, single point]"
15,CC(C)(C)c1ccc(OCC(=O)Nc2ccc3c4c(cccc24)C(=O)NC3=O)cc1,"inconclusive: 29.1 µM [inhibitor, single point]"
16,CS(=O)(=O)c1ccc(Cl)c(NC(=O)COC(=O)CNC(=O)c2ccccc2)c1,"inconclusive: 5.01 µM [inhibitor, single point]"
17,CSc1sc(-c2ccnc(=S)[nH]2)c(-c2ccccc2)c1C#N,"inconclusive: 4.47 µM [activator, full curve, poor fit]"
18,Clc1cnc(N/N=C/c2ccco2)c(Cl)c1,"inconclusive: 7.31 µM [inhibitor, partial curve, poor fit]"
19,Cc1cccc(-n2c3nc(=O)[nH]c(=O)c-3cc3c(C)nn(-c4ccccc4)c32)c1C,inactive
20,CN(C/N=C(\N)N[N+](=O)[O-])S(=O)(=O)c1ccccc1,"inconclusive: 6.31 µM [activator, single point]"
21,CC(/C=C/c1ccc(N(C)C)cc1)=N\N=C(/N)SC1CC(=O)N(c2ccc(C(=O)O)cc2)C1=O (stereo not drawn),"inconclusive: 10 µM [inhibitor, partial curve]"
22,COc1ccc(-c2nnc(Nc3ccc(CC(N)=O)cc3)c3ccccc23)cc1,inactive

row,SMILES,Potency
1,Cc1ccc(-c2nc3cc(C)ccc3o2)cc1,"inconclusive: 15.8 µM [inhibitor, single point]"
2,Cc1cc(=O)[nH]c(SCC(=O)N2CCC(Cc3ccccc3)CC2)n1,"inconclusive: 35.5 µM [activator, single point]"
3,COc1ccc(NC(=O)/C=C/c2cccc(C(F)(F)F)c2)cn1,"inconclusive: 11.2 µM [inhibitor, partial curve, poor fit]"
4,CN(CC(=O)NC(=O)NC1CCCCC1)CC(=O)Nc1ccc(OC(F)(F)F)cc1,inactive
5,CCCCOCCCNC(=O)c1ccc(OCC)cc1,"inconclusive: 5.62 µM [inhibitor, single point]"
6,CC(=O)NC(CC(=O)Nc1nc(-c2ccc(N(C)S(C)(=O)=O)cc2)cs1)c1ccccc1 (stereo not drawn),"inconclusive: 11.2 µM [inhibitor, partial curve, poor fit]"
7,COc1cc(CC(=O)OCc2cccc([N+](=O)[O-])c2)cc(OC)c1OC,inactive
8,O=C(CSC1=N/C(=C/c2ccco2)C(=O)N1c1ccc(OC(F)F)cc1)NC1CCS(=O)(=O)C1 (stereo not drawn),inactive
9,COc1ccc(C(CNC(=O)c2cccc(NS(=O)(=O)c3ccc(C)c(F)c3)c2)N2CCOCC2)cc1 (stereo not drawn),"inconclusive: 7.94 µM [inhibitor, partial curve, poor fit]"
10,O=C(CN1CCCCC1)Nc1nc(-c2ccc(F)c(F)c2)cs1,"inconclusive: 35.5 µM [inhibitor, single point]"
11,CC1CCN(CCC(=O)Nc2ccc(Cl)cc2)CC1,"inconclusive: 35.5 µM [inhibitor, single point]"
12,O=c1c2ccccc2c(-c2n[nH]c(=S)o2)nn1Cc1ccccc1,inactive
13,O=C(/C=C\Nc1ccc(Cl)cn1)c1ccc(Br)cc1,"inconclusive: 5.01 µM [activator, partial curve, poor fit]"
14,CC12CC(c3ccccc3O1)N(C(=O)c1ccc(Br)o1)C(=O)N2c1ccccc1 (stereo not drawn),"inconclusive: 29.1 µM [inhibitor, single point]"
15,O=C(NCCCN1CCOCC1)c1cc(Cl)ccc1[N+](=O)[O-],"inconclusive: 35.5 µM [activator, partial curve, poor fit]"
16,CCCC(=O)NC(c1ccccc1Cl)c1ccc2cccnc2c1O (stereo not drawn),active: 0.891 µM
17,COC(=O)c1ccc(NC(=O)Nc2ccc(F)cc2)cc1,inactive
18,NC(=O)COC(=O)/C=C/c1ccc2ccccc2n1,"inconclusive: 1.12 µM [activator, full curve, poor fit]"
19,CCn1cc(C(=O)NCCc2ccccc2)c(=O)c2cc(F)c(N3CCN(C)CC3)cc21,inactive
20,Cc1ccc(CN(CCO)CCO)cc1,"inconclusive: 3.16 µM [inhibitor, single point]"
21,Cc1nn(CCCC(=O)Nc2cccc(F)c2)c(=O)c2c1sc1ccccc12,"inconclusive: 4.47 µM [inhibitor, full curve, poor fit]"

# Sorted by number of heavy atoms (high to low): part of the list above.
row,SMILES,Potency
21,CC(/C=C/c1ccc(N(C)C)cc1)=N\N=C(/N)SC1CC(=O)N(c2ccc(C(=O)O)cc2)C1=O (stereo not drawn),"inconclusive: 10 µM [inhibitor, partial curve]"
6,CC(=O)NC(CC(=O)Nc1nc(-c2ccc(N(C)S(C)(=O)=O)cc2)cs1)c1ccccc1 (stereo not drawn),"inconclusive: 11.2 µM [inhibitor, partial curve, poor fit]"
21,Cc1nn(CCCC(=O)Nc2cccc(F)c2)c(=O)c2c1sc1ccccc12,"inconclusive: 4.47 µM [inhibitor, full curve, poor fit]"
